Drawing on paper PMC6594655, this text covers binding for one substance.

Protein sequences, listed by entry. Tags and fused reporters are not part of them. Residues count along the entry.
UniProt Q8JUX6, residues 1334-1863: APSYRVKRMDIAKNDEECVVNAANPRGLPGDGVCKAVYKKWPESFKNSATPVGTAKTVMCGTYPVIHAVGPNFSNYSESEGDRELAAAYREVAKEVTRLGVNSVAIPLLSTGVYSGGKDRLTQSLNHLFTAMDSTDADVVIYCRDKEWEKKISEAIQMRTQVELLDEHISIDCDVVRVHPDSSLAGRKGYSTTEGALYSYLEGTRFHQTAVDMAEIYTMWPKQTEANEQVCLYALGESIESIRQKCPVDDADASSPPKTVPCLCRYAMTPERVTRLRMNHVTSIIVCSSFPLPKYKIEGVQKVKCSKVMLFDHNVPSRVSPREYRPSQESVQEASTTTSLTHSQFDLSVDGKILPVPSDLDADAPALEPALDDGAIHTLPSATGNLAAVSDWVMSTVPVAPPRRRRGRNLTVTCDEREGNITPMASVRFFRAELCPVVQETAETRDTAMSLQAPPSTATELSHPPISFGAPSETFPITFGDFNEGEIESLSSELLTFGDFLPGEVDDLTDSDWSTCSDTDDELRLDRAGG
UniProt Q13283: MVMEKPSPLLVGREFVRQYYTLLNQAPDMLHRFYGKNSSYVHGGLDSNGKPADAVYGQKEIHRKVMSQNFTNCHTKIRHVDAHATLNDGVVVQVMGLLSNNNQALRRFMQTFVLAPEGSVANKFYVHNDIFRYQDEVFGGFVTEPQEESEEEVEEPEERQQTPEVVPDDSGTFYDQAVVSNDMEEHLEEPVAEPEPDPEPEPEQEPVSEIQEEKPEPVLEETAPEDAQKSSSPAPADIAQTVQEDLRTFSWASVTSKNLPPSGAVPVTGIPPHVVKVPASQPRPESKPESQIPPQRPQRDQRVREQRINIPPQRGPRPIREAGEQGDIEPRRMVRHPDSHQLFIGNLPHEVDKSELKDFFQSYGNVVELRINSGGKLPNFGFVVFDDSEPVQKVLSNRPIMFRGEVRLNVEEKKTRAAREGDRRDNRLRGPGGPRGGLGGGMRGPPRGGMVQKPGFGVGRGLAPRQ

No constants are given. Whether binding was seen depends on the method and setting. Binding seen in cells or lysates may run through a third protein. Some results given as binding are weak or reduced against the parent protein; the word gives no strength.

The experiment has as its target BAP-tagged CHIKV nsP3 (chikungunya virus) (UniProt Q8JUX6). Briefly: pull-down.

Turning to “GFP-G3BP1 WT (from UniProt Q13283 1-466)”, the binding entry is “binds”.
